Assay results as given in PMC8542044.
Results are given in words; binding and its absence hold for the method and conditions named. Binding seen in cells or lysates may run through a third protein. A yes stands for co-enrichment or nearness to the bait. Other partners may have been found. Where a sequence is shown, tags or fusion partners need not be part of it.

The chains behind the UniProt entries cited, without tags or fusion partners.
UniProt P55263: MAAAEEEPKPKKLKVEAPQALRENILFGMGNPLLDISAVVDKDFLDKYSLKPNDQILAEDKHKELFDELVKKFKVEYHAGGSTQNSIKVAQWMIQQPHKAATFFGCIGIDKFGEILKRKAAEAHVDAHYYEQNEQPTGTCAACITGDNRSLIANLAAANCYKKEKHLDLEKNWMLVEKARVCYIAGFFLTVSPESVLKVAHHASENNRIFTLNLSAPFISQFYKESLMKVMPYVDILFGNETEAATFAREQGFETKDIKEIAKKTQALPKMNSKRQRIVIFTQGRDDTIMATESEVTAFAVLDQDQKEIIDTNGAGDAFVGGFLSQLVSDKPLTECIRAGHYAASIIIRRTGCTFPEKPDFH
UniProt Q05655: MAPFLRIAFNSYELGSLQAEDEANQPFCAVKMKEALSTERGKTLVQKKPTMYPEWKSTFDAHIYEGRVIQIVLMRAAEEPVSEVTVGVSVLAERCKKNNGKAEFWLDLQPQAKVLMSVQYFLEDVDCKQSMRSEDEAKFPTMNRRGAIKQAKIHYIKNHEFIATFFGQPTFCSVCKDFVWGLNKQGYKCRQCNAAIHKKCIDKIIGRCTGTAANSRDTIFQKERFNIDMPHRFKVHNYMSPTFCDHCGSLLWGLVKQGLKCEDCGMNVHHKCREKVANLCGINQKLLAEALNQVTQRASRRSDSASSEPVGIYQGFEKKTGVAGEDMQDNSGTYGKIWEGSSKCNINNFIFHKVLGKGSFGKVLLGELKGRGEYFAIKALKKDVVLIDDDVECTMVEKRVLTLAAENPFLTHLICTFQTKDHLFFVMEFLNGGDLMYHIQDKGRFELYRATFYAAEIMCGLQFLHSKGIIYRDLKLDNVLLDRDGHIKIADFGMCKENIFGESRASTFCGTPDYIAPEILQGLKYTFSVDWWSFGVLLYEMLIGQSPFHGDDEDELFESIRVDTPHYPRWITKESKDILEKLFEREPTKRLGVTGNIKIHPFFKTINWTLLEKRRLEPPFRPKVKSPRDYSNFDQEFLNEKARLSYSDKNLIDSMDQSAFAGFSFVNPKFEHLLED
UniProt Q9H4A3: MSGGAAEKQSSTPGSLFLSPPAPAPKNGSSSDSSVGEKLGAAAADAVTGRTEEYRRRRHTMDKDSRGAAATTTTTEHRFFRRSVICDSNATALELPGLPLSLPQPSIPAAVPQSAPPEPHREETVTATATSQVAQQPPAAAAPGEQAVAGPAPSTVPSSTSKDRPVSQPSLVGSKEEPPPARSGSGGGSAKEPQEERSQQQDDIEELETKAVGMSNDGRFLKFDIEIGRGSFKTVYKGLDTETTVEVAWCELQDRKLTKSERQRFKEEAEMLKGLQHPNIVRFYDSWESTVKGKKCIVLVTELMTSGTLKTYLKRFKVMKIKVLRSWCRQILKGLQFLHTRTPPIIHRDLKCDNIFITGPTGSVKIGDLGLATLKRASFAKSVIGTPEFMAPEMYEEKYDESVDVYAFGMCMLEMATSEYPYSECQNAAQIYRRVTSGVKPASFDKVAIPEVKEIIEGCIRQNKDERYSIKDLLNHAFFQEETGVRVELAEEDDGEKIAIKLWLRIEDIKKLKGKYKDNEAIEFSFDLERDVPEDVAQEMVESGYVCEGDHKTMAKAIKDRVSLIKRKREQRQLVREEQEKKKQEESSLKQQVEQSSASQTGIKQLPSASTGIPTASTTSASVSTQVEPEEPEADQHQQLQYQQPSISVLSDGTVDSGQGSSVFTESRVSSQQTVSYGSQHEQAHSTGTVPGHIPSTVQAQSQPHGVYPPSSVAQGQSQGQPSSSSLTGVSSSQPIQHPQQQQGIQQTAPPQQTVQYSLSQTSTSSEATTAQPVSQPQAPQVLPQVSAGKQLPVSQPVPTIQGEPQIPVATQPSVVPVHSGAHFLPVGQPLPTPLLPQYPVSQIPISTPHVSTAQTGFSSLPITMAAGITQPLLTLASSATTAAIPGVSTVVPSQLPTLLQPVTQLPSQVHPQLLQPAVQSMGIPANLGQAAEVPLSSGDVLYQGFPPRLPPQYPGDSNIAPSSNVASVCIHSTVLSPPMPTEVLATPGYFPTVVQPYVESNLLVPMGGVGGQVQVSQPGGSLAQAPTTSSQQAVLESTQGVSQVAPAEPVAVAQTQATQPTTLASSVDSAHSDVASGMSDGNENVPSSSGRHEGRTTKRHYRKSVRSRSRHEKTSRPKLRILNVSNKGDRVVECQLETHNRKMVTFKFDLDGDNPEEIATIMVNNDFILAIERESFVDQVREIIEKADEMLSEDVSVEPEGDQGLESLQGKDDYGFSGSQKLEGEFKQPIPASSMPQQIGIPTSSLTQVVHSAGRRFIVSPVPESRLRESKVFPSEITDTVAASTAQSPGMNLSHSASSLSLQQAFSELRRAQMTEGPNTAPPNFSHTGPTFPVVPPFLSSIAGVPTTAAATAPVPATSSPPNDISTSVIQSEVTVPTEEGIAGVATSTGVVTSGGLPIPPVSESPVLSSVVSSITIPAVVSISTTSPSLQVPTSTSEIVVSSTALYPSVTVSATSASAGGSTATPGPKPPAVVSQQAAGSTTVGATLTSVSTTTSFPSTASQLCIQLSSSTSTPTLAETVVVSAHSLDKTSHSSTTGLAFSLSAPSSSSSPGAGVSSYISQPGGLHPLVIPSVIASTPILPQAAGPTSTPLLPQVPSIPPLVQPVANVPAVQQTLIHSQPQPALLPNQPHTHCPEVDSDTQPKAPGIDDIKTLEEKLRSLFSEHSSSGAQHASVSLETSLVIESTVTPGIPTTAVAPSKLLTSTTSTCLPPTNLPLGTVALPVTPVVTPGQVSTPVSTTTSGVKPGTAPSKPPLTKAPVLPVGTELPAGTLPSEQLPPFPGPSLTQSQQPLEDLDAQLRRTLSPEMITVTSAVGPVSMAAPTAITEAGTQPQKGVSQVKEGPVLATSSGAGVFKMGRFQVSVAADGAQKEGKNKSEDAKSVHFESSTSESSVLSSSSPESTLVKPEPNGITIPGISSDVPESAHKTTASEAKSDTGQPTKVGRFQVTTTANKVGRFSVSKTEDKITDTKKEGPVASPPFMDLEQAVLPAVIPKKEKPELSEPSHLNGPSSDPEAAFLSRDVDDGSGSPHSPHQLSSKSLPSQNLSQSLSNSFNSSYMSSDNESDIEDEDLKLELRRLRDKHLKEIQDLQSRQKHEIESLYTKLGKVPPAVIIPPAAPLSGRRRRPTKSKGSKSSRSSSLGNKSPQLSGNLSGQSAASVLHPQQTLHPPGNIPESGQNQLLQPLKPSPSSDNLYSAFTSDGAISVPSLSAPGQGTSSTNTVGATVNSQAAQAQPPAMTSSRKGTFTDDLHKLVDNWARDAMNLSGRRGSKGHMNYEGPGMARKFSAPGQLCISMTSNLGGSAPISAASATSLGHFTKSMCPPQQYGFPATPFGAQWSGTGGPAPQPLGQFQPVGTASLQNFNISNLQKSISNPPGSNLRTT

T1: Flag-MLKL-Q356A (human) (UniProt Q8NB16)
T1 sequence: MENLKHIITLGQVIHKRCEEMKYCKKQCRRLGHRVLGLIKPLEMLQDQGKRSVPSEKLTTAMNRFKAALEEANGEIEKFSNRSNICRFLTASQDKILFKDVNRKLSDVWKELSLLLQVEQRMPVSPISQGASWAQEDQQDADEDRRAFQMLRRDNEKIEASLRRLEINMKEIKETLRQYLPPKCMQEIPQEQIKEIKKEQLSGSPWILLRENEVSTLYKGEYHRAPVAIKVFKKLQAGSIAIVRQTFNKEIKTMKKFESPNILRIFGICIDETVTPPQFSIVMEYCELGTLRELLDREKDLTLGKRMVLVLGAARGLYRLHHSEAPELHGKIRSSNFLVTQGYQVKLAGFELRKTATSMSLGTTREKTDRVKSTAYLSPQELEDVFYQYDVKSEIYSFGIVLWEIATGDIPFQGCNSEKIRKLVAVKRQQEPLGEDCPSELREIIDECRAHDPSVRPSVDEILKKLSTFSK

B1: PRKCI (enzyme, UniProt P41743 1-596)
chain: MPTQRDSSTMSHTVAGGGSGDHSHQVRVKAYYRGDIMITHFEPSISFEGLCNEVRDMCSFDNEQLFTMKWIDEEGDPCTVSSQLELEEAFRLYELNKDSELLIHVFPCVPERPGMPCPGEDKSIYRRGARRWRKLYCANGHTFQAKRFNRRAHCAICTDRIWGLGRQGYKCINCKLLVHKKCHKLVTIECGRHSLPQEPVMPMDQSSMHSDHAQTVIPYNPSSHESLDQVGEEKEAMNTRESGKASSSLGLQDFDLLRVIGRGSYAKVLLVRLKKTDRIYAMKVVKKELVNDDEDIDWVQTEKHVFEQASNHPFLVGLHSCFQTESRLFFVIEYVNGGDLMFHMQRQRKLPEEHARFYSAEISLALNYLHERGIIYRDLKLDNVLLDSEGHIKLTDYGMCKEGLRPGDTTSTFCGTPNYIAPEILRGEDYGFSVDWWALGVLMFEMMAGRSPFDIVGSSDNPDQNTEDYLFQVILEKQIRIPRSLSVKAASVLKSFLNKDPKERLGCHPQTGFADIQGHPFFRNVDWDMMEQKQVVPPFKPNISGEFGLDNFDSQFTNEPVQLTPDDDDIVRKIDQSEFEGFEYINPLLMSAEECV

target: T1, Flag-MLKL-Q356A (human); test: affinity purification with mass spectrometry; oligomerized MLKL Q356A after Dox induction, with or without NSA; proteins bound identified by mass spectrometry (Table S4)

**Q.** For “ADK (from UniProt P55263 1-362) (enzyme)”, which binding is on record?
**A.** binds

**Q.** For “PRKCD (from UniProt Q05655 1-676) (enzyme)”, which binding is on record?
**A.** binds

**Q.** “WNK1 (from UniProt Q9H4A3 1-2382) (enzyme)” was tested. Which binding did it give?
**A.** binds

**Q.** B1 was tested. Which binding did it give?
**A.** binds
